# According to the supplement of paper PMC12823440, “Inhibitors supercharge kinase turnover through native proteolytic circuits” (Nature, 2025):
# By UniProt entry, the sequences of proteins in these tests, tags left out. Where a name states a change or a piece, a line headed by the entry shows the natural chain unless it says otherwise.
# UniProt Q16288, whole entry, looked up: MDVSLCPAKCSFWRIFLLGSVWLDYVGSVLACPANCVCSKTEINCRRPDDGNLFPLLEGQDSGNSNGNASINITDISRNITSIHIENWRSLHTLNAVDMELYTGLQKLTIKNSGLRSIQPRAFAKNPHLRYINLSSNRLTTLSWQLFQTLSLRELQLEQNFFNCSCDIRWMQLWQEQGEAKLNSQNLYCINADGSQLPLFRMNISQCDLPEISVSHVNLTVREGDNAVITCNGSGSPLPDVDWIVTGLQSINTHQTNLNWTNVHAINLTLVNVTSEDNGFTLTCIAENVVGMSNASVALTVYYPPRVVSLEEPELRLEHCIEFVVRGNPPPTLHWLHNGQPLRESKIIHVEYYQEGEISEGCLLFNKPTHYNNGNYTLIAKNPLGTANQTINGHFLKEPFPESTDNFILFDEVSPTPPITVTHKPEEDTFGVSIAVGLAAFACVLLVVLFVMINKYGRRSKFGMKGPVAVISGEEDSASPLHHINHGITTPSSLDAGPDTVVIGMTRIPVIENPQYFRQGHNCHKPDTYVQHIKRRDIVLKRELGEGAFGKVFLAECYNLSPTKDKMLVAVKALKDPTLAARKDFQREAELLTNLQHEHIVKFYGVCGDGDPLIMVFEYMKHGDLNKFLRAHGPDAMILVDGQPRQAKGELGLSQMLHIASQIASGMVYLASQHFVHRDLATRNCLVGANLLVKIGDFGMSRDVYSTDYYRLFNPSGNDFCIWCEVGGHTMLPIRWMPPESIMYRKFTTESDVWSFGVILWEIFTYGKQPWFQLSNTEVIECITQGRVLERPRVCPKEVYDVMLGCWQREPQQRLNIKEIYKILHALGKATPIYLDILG
# UniProt O96013: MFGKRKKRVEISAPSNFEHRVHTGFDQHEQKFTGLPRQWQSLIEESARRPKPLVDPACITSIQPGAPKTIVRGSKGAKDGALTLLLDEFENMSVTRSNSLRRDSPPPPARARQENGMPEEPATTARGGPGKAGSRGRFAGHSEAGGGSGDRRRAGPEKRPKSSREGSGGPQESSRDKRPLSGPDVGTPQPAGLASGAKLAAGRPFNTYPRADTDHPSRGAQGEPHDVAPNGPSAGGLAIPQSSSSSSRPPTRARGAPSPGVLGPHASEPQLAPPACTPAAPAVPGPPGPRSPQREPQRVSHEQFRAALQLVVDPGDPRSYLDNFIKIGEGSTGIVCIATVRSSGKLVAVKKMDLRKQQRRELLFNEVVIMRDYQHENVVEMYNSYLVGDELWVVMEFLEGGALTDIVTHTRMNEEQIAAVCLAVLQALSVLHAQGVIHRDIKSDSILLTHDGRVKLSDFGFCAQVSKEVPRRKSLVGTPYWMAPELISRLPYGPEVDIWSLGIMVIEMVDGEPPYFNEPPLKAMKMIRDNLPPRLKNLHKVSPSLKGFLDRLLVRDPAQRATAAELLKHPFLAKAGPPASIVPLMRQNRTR
# UniProt Q96KB5: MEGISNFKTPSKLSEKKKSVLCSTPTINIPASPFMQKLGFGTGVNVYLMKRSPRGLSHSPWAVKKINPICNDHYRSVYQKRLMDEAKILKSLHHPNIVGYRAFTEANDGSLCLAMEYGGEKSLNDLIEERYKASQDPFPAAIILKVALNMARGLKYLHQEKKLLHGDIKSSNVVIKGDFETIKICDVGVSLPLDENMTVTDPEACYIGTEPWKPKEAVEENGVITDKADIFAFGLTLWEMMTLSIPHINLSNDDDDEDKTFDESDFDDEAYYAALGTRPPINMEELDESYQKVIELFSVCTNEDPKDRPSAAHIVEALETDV
# UniProt P09619, whole entry: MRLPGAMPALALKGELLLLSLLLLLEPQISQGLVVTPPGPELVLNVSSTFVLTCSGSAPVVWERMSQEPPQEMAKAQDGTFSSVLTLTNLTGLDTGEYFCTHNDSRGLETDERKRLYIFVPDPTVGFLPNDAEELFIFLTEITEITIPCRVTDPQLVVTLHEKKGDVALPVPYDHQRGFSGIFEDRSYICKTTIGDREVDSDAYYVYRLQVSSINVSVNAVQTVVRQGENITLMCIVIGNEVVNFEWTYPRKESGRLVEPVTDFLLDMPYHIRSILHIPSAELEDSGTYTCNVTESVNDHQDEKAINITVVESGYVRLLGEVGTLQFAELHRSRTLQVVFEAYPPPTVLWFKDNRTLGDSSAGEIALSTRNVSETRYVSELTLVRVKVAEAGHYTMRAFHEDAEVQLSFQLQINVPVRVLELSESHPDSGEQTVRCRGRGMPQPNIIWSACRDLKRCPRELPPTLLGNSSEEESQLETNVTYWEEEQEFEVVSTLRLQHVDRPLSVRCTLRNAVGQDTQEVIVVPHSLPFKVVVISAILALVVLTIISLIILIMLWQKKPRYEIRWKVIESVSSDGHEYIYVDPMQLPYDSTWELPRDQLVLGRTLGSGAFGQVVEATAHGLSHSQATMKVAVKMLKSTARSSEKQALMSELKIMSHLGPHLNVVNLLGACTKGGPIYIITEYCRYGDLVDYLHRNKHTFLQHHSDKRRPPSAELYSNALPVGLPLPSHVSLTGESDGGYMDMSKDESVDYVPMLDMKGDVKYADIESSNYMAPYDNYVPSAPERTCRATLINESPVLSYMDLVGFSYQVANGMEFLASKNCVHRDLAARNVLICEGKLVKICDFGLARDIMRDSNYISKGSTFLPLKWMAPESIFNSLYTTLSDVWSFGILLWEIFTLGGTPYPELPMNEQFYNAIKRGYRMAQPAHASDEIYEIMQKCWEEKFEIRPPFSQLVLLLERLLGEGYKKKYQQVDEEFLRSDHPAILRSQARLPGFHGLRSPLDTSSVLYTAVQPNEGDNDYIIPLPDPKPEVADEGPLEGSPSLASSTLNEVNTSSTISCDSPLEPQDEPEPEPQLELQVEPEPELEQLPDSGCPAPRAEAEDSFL
# UniProt Q15118, whole entry, looked up: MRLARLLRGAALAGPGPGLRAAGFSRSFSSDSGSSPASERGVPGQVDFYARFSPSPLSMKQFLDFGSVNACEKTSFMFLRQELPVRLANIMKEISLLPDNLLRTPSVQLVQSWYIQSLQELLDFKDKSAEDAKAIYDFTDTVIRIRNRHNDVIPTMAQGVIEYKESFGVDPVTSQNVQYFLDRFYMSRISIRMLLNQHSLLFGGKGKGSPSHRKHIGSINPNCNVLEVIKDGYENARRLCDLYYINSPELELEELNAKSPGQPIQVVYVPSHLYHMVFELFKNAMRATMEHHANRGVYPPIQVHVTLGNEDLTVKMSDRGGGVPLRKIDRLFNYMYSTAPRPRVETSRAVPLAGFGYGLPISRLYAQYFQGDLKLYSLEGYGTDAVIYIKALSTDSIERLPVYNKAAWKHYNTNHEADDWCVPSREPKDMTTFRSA
# UniProt O15530: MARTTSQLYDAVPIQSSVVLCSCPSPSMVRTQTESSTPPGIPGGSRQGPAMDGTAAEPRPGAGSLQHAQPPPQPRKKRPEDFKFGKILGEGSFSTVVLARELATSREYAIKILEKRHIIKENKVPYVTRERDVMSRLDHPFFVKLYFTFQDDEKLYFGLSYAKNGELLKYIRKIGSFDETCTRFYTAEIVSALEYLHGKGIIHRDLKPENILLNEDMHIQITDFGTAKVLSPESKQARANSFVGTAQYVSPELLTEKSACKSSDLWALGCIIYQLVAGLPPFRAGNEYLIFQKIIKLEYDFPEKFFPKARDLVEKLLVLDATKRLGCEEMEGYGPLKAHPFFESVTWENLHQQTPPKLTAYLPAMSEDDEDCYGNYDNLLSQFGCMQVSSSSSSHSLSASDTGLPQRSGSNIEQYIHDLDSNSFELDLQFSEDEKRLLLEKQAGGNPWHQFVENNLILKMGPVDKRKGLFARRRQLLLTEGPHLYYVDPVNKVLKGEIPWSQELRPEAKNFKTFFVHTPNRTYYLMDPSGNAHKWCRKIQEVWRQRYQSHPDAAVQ
# UniProt Q9UBF8: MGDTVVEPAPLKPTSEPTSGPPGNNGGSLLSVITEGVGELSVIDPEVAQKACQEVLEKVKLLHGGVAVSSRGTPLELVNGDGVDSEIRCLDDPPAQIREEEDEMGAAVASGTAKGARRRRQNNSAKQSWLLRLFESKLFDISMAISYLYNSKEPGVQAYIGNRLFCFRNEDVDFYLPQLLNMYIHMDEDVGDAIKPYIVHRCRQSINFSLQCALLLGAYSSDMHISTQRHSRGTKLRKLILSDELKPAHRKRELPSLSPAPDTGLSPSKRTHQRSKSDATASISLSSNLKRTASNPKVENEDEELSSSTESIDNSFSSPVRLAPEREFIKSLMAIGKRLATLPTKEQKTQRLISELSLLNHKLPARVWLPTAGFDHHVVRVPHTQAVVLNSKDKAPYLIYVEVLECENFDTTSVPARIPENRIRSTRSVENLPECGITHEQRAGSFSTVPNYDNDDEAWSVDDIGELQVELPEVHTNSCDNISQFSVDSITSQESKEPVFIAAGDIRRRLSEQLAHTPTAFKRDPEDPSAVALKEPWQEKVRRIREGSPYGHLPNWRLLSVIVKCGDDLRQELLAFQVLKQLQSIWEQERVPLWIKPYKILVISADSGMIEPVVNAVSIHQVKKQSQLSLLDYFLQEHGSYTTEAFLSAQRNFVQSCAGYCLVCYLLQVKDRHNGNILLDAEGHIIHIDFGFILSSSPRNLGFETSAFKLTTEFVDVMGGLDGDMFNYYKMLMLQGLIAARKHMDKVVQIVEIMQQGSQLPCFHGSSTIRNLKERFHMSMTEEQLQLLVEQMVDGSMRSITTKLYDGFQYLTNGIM
# UniProt P53350, whole entry: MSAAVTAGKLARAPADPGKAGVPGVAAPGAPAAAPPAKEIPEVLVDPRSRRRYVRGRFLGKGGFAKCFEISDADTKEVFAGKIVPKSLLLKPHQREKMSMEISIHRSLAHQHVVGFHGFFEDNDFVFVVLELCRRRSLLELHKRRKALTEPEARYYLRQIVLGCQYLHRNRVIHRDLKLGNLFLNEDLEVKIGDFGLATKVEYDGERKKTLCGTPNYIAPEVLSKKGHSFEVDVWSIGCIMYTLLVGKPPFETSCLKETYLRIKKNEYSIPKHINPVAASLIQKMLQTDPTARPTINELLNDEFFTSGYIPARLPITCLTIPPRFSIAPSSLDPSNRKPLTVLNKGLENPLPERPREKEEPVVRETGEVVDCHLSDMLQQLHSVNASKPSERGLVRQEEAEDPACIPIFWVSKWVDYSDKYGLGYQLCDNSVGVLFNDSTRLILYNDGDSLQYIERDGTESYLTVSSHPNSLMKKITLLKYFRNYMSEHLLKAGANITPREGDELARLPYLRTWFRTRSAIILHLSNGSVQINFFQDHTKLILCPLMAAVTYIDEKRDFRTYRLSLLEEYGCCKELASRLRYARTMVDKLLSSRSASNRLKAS
# UniProt Q13131: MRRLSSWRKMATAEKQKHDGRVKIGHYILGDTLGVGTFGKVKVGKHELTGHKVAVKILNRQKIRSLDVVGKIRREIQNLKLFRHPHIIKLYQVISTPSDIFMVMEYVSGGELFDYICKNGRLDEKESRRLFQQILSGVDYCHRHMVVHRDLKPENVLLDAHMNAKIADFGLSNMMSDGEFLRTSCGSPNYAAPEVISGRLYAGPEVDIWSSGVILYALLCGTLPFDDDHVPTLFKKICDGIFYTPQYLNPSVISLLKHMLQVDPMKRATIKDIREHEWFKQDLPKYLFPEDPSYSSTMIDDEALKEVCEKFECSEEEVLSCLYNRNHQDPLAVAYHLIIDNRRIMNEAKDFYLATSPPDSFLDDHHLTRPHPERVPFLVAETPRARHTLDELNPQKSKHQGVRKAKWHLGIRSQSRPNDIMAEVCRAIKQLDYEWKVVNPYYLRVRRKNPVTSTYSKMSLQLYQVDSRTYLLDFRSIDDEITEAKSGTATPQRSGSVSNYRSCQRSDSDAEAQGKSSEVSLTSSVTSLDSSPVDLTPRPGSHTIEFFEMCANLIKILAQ
# Where a name gives a salt, the structure may show the parent alone. The list shows a part of the results. Hit calls seldom repeat between salt and free forms of one compound.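 Kinases, fused to nanoluciferase, were expressed in K562 cells; luminescence was measured every 4 h from 2 to 18 h as percent of control (DMSO = 100%, positive control = 0%). A time point is decreased if signal falls significantly (2 sigma). Hits were called by the authors by a rule that is not shown; the count of time points alone does not decide it.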
# Tests used:
# Test in all cases: number of time points (of 5) at which kinase-Nluc abundance scored as decreased, DMSO-normalised (count); higher = more persistent destabilization
# Conditions in all cases: K562; 2-18 h
# NTRK3 = NTRK3 (UniProt Q16288)
# PAK4 = PAK4 (UniProt O96013)
# PBK = PBK (UniProt Q96KB5)
# PDGFRB = PDGFRB (UniProt P09619)
# PDK1 = PDK1 (UniProt Q15118)
# PDPK1 = PDPK1 (UniProt O15530)
# PIK4CA = PIK4CA (UniProt P42356)
# PIK4CB = PIK4CB (UniProt Q9UBF8)
# PLK1 = PLK1 (UniProt P53350)
# PRKAA1 = PRKAA1 (UniProt Q13131)
Compound,number of time points (NTRK3),number of time points (PAK4),number of time points (PBK),number of time points (PDGFRB),number of time points (PDK1),number of time points (PDPK1),number of time points (PIK4CA),number of time points (PIK4CB),number of time points (PLK1),number of time points (PRKAA1)
O=C(Nc1cccc(-c2nc(-c3ccc(NC(=O)c4cccnc4)cc3Cl)no2)c1)Nc1ccc(NC(=O)C2CC2)c(C(F)(F)F)c1 (2.5 µM),0,0,0,0,0,0,0,0,0,0
COc1cc(N2CCOCC2)ccc1Nc1ncc(F)c(Nc2ccccc2NS(C)(=O)=O)n1 (10 µM),0,0,0,0,0,0,0,0,0,0
Cn1ncc(NC(=O)c2nc(-c3c(F)cccc3F)sc2N)c1N1CC[C@@H](N)[C@H](F)CC1 (10 µM),0,0,0,0,0,2,0,0,0,0
C=CC(=O)Nc1cc(Nc2nccc(-c3cn(C)c4ccccc34)n2)c(OC)cc1N(C)CCNC [AZ7550 Mesylate] (2.5 µM),0,0,0,0,0,1,0,0,0,0
Cc1cc(-n2c(=O)ccc3c[nH]c4nccc-4c32)ccc1F (10 µM),0,0,0,0,0,0,0,0,0,0
Cc1cccc(COc2cccc(/C=C3\C(=O)NN(c4ccccc4)C3=O)c2)c1 (10 µM),0,0,0,0,0,0,0,0,0,0
Nc1ncc(-c2ccnc(Nc3ccncc3)n2)c(CC2CC2)n1 (10 µM),0,0,0,0,0,2,0,0,1,0
Cn1c2cc([S+](C)[O-])sc2c2cnn(Cc3cccc(N)c3)c(=O)c21 (stereo not given) (2.5 µM),0,0,0,0,0,0,0,0,0,0
Cc1cccc(-c2[nH]ncc2-c2ccnc3ccccc23)n1 (10 µM),0,0,0,0,0,0,0,0,0,0
CNC(=O)c1ccc2c(c1)ncn2-c1ccc(CC(=O)OC(C)(C)C)cc1 (10 µM),0,0,0,0,0,0,0,0,0,0
Cc1ccc(NC(=O)Nc2cc(C(F)(F)F)ccc2F)cc1Nc1ccc2c(c1)NC(=O)/C2=C\c1ccc[nH]1 (2.5 µM),3,0,0,0,0,0,0,0,0,0
CC(O)(C#Cc1ccc2c(c1)N(c1nc(N)ncc1Cl)CC2)c1nccs1 (stereo not given) (2.5 µM),0,0,0,0,0,0,0,0,0,0
COc1cc(-c2cc(-c3ccc(N4CCNCC4)cc3)cnc2C)cc(OC)c1OC (10 µM),0,0,0,0,0,0,0,0,0,0
Cc1cc(C(=O)NC(C)(C)C)cc(C#Cc2ccc3c4c(oc3c2)C(C)(C)c2cc(NS(C)(=O)=O)ccc2C4=O)n1 (10 µM),0,0,0,0,0,0,0,0,0,0
